At least one structure is not confirmed: it was looked up by name or label, or the drawing left a doubt.
Assays:
[1] = stability toward air: neutralization of the salt by CO2 and water to neutral Cel (Cel-III); format: physicochemical
Source text: The behavior was first observed when using compressed air instead of nitrogen in the dynamic vapor sorption experiment, but it was also clear in samples stored open in controlled humidity chambers. The neutralization was minimized to get clean PXRD patterns by including small vials of concentrated NaOH solution within the closed humidity chambers to remove CO2 from the air. […] Throughout the conversion, both Cel-III and the sodium salt are clearly observed by PXRD with Cel-III growing slowly over time.

[2] = Dynamic Vapor Sorption (DVS) moisture sorption analysis; format: physicochemical; conditions: DVS at 25° C.
Procedure: Moisture sorption analysis was performed using a Dynamic Vapor Sorption apparatus (Surface Measurement Systems, Monarch Beach, Calif.). Each sample was placed in a clean glass crucible and equilibrated in the apparatus at a specified RH level. Varying the flow rates of dry nitrogen gas and saturated wet nitrogen gas streams controlled RH; the total combined flow rate was kept constant at 200 standard […] per minute. After initial equilibration, RH was varied and change in mass was recorded over time as an indication of moisture sorption. Mass equilibration at each humidity level was determined as a change in mass less than ±2×10^−5 grams over a time interval of 1 minute (dm/dt of 0.002% min). After the assay, the change in mass was mathematically converted to water molar equivalents per dry compound molar equivalent.
The dynamic vapor sorption profiles were measured starting with Cel-NaPG at 0% RH, and for Cel-NaPG(H2O)3 beginning at 20% RH to avoid dehydrating it prior to the first absorption cycle. The profiles are shown in FIG. 12 alongside PXRD patterns for samples of Cel-NaPG stored in controlled humidity chambers for 1-2 days.

Structure (SMILES): Cc1ccc(-c2cc(C(F)(F)F)nn2-c2ccc(S(N)(=O)=O)cc2)cc1 [Cel-Na(H2O)x]
- reversion to crystalline free base ([1]; exposed to ambient CO2 at 40% RH or higher): reverts rapidly to the crystalline free base
- appearance of Cel-III in samples exposed to air ([1]; left exposed to the air, PXRD peak at 7.9 2-θ): Cel-III begins to appear in samples that are left exposed to the air
- weight separation between the 15-30% RH plateau and the trihydrate plateau [2]: 7.8 % weight
- reversibility of hydration ([2]; full humidity range): reversible throughout the full humidity range with some hysteresis at the transition points
